According to paper PMC7671692:
Results are given in words; binding and its absence hold for the method and conditions named. In cells and extracts the contact can be indirect. Some entries that bind do so weakly or less than the wild type.

Amino acid sequences for entries named in this document (tags omitted). Residues count along the entry.
UniProt Q9UQ35, residues 1-2748: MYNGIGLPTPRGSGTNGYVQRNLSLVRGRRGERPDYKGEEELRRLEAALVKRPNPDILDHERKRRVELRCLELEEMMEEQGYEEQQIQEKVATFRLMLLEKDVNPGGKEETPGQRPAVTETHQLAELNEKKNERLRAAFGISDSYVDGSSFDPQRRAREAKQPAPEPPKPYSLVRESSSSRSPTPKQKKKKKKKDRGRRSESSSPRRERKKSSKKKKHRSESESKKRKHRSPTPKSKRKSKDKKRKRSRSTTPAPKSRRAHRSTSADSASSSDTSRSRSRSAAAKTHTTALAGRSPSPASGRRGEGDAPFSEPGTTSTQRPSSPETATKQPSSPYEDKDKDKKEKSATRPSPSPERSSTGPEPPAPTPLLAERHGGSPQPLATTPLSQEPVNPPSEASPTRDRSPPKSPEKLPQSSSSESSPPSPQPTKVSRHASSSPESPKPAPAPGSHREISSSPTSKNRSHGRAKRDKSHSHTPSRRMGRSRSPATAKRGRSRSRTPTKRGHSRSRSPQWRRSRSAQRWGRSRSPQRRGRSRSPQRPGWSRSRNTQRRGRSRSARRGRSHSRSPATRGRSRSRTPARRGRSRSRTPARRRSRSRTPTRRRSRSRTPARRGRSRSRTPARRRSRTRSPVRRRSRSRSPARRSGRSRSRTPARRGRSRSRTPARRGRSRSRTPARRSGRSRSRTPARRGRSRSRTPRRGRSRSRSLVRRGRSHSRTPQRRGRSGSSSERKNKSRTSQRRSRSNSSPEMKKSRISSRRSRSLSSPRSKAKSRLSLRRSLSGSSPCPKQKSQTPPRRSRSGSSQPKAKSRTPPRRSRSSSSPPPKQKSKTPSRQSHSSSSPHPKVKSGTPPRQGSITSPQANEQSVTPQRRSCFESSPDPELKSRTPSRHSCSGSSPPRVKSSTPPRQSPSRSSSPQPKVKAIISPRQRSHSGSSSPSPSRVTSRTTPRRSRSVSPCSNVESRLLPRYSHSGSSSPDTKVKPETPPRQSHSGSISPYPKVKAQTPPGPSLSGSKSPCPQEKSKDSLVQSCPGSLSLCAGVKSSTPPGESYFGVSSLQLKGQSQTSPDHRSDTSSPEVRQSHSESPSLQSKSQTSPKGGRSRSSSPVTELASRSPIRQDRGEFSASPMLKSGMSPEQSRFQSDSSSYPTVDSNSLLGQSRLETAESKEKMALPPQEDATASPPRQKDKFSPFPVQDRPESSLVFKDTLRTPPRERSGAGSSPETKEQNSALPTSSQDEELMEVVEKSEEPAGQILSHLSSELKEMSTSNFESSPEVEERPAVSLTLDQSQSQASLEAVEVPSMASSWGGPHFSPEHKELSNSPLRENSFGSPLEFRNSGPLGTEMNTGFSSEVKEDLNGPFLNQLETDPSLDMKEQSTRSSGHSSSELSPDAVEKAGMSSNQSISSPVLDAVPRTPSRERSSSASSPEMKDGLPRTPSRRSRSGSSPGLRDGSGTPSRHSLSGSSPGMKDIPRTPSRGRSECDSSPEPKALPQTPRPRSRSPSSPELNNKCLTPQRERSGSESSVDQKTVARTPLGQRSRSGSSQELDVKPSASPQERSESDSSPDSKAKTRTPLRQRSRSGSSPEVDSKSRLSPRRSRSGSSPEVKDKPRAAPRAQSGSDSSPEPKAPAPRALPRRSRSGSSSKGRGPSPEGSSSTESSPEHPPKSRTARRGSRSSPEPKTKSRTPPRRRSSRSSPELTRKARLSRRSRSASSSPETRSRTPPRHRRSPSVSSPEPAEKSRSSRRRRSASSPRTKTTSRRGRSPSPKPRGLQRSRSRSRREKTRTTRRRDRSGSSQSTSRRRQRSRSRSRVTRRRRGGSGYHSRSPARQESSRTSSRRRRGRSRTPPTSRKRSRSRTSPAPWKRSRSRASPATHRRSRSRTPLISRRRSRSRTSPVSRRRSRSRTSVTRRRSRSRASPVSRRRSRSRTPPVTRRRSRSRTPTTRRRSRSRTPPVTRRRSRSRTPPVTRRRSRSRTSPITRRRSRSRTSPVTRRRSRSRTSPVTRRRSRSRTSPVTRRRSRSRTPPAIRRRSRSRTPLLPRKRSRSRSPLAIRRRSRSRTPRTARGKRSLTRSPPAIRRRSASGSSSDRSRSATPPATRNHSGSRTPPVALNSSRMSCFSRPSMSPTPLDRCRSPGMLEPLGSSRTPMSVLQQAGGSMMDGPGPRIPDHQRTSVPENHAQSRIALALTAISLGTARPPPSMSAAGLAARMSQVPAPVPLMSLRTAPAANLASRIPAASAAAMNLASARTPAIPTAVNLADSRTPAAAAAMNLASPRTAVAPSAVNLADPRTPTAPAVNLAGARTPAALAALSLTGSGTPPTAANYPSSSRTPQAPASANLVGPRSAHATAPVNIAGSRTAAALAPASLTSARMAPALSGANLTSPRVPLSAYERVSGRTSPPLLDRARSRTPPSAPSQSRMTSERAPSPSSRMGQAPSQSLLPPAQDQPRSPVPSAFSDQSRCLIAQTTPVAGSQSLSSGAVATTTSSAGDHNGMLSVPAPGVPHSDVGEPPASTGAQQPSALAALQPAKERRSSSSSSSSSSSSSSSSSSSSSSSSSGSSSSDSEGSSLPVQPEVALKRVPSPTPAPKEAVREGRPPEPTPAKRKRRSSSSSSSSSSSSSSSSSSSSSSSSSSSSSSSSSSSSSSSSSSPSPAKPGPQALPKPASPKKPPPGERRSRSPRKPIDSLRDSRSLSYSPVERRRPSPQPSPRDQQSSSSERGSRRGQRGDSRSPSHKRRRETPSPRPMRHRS

Biological target: SRRM2^tr0 (SRRM2 truncation 0, TagGFP2 fusion, near-full-length) (human) (UniProt Q9UQ35)
Test: co-IP; GFP-trap agarose beads on whole-cell lysates of HAP1 cell lines with TagGFP2-tagged SRRM2 alleles (wild-type lysate as negative control), overnight in the cold-room; washes with 1x NLB, briefly HSB (1M NaCl), NDB; eluates immunoblotted

B1: SRRM1 (protein, UniProt Q8IYB3 1-904)
chain: MDAGFFRGTSAEQDNRFSNKQKKLLKQLKFAECLEKKVDMSKVNLEVIKPWITKRVTEILGFEDDVVIEFIFNQLEVKNPDSKMMQINLTGFLNGKNAREFMGELWPLLLSAQENIAGIPSAFLELKKEEIKQRQIEQEKLASMKKQDEDKDKRDKEEKESSREKRERSRSPRRRKSRSPSPRRRSSPVRRERKRSHSRSPRHRTKSRSPSPAPEKKEKTPELPEPSVKVKEPSVQEATSTSDILKVPKPEPIPEPKEPSPEKNSKKEKEKEKTRPRSRSRSKSRSRTRSRSPSHTRPRRRHRSRSRSYSPRRRPSPRRRPSPRRRTPPRRMPPPPRHRRSRSPVRRRRRSSASLSGSSSSSSSSRSRSPPKKPPKRTSSPPRKTRRLSPSASPPRRRHRPSPPATPPPKTRHSPTPQQSNRTRKSRVSVSPGRTSGKVTKHKGTEKRESPSPAPKPRKVELSESEEDKGGKMAAADSVQQRRQYRRQNQQSSSDSGSSSSSEDERPKRSHVKNGEVGRRRRHSPSRSASPSPRKRQKETSPRGRRRRSPSPPPTRRRRSPSPAPPPRRRRTPTPPPRRRTPSPPPRRRSPSPRRYSPPIQRRYSPSPPPKRRTASPPPPPKRRASPSPPPKRRVSHSPPPKQRSSPVTKRRSPSLSSKHRKGSSPSRSTREARSPQPNKRHSPSPRPRAPQTSSSPPPVRRGASSSPQRRQSPSPSTRPIRRVSRTPEPKKIKKAASPSPQSVRRVSSSRSVSGSPEPAAKKPPAPPSPVQSQSPSTNWSPAVPVKKAKSPTPSPSPPRNSDQEGGGKKKKKKKDKKHKKDKKHKKHKKHKKEKAVAAAAAAAVTPAAIAAATTTLAQEEPVAAPEPKKETESEAEDNLDDLEKHLREKALRSMRKAQVSPQS
B1 was tested, and the binding was “binds”.
